Screening data

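Malaria parasite (P. falciparum) lines kept in red blood cells; parasite DNA is measured by SYBR Green fluorescence after lysis, 72 h after compound addition. Each compound was titrated across a series from about 0.000037 to 29 µM. The number is the fitted AC50, the concentration giving a half-maximal change in signal; a lower value means higher potency, whether the curve shows a decrease or an increase. Calls follow the curve class and fit quality: every row here is inconclusive, covering signal-raising curves and weak, poorly fitted, partial or highest-dose-only inhibition curves.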

Values are in µM. Every entry below has the call inconclusive. These entries are mostly ones the record files as inconclusive; other results of the assay are not listed here. Potencies fitted to partial, single-point or poorly fitting curves are rough.

{"structure": "Nc1ccc2cc3ccc(N)cc3nc2c1", "condition": "CP217", "fitted potency (µM)": "17.78", "curve as filed": "inhibitor, single point"}
{"structure": "Nc1ccc2cc3ccc(N)cc3nc2c1", "condition": "CP191", "fitted potency (µM)": "12.59", "curve as filed": "inhibitor, single point"}
{"structure": "Nc1ccc2cc3ccc(N)cc3nc2c1", "condition": "P94_40", "fitted potency (µM)": "10", "curve as filed": "inhibitor, single point"}
{"structure": "Nc1ccc2cc3ccc(N)cc3nc2c1", "condition": "CP265", "fitted potency (µM)": "17.78", "curve as filed": "inhibitor, single point"}
{"structure": "Nc1ccc2cc3ccc(N)cc3nc2c1", "condition": "CP192", "fitted potency (µM)": "19.01", "curve as filed": "inhibitor, single point"}
{"structure": "Nc1ccc2cc3ccc(N)cc3nc2c1", "condition": "CP256", "fitted potency (µM)": "17.78", "curve as filed": "inhibitor, single point"}
{"structure": "Nc1ccc2cc3ccc(N)cc3nc2c1", "condition": "CP297", "fitted potency (µM)": "13.46", "curve as filed": "inhibitor, single point"}
{"structure": "Nc1ccc2cc3ccc(N)cc3nc2c1", "condition": "ATS189", "fitted potency (µM)": "11.22", "curve as filed": "inhibitor, single point"}
{"structure": "Nc1ccc2cc3ccc(N)cc3nc2c1", "condition": "CP325", "fitted potency (µM)": "19.01", "curve as filed": "inhibitor, single point"}
{"structure": "Nc1ccc2cc3ccc(N)cc3nc2c1", "condition": "PAD", "fitted potency (µM)": "12.59", "curve as filed": "inhibitor, single point"}
{"structure": "Nc1ccc2cc3ccc(N)cc3nc2c1", "condition": "CP252", "fitted potency (µM)": "17.78", "curve as filed": "inhibitor, single point"}
{"structure": "Nc1ccc2cc3ccc(N)cc3nc2c1", "condition": "JCK", "fitted potency (µM)": "17.78", "curve as filed": "inhibitor, single point"}
{"structure": "Nc1ccc2cc3ccc(N)cc3nc2c1", "condition": "PC26", "fitted potency (µM)": "16.94", "curve as filed": "inhibitor, single point"}
{"structure": "Nc1ccc2cc3ccc(N)cc3nc2c1", "condition": "Dd2", "fitted potency (µM)": "15.85", "curve as filed": "inhibitor, single point"}
{"structure": "Nc1ccc2cc3ccc(N)cc3nc2c1", "condition": "3D7", "fitted potency (µM)": "11.22", "curve as filed": "inhibitor, single point"}
{"structure": "Nc1ccc2cc3ccc(N)cc3nc2c1", "condition": "CP250", "fitted potency (µM)": "10", "curve as filed": "inhibitor, single point"}
{"structure": "Nc1ccc2cc3ccc(N)cc3nc2c1", "condition": "ECU", "fitted potency (µM)": "17.78", "curve as filed": "inhibitor, single point"}
{"structure": "Nc1ccc2cc3ccc(N)cc3nc2c1", "condition": "PC49", "fitted potency (µM)": "17.78", "curve as filed": "inhibitor, single point"}
{"structure": "Nc1ccc2cc3ccc(N)cc3nc2c1", "condition": "CP269", "fitted potency (µM)": "16.94", "curve as filed": "inhibitor, single point"}
{"structure": "Nc1ccc2cc3ccc(N)cc3nc2c1", "condition": "ATS95", "fitted potency (µM)": "12.59", "curve as filed": "inhibitor, single point"}
{"structure": "Nc1ccc2cc3ccc(N)cc3nc2c1", "condition": "DIV30", "fitted potency (µM)": "19.01", "curve as filed": "inhibitor, single point"}
{"structure": "Nc1ccc2cc3ccc(N)cc3nc2c1", "condition": "CP215", "fitted potency (µM)": "16.94", "curve as filed": "inhibitor, single point"}
{"structure": "Nc1ccc2cc3ccc(N)cc3nc2c1", "condition": "CP305", "fitted potency (µM)": "19.01", "curve as filed": "inhibitor, single point"}
{"structure": "Nc1ccc2cc3ccc(N)cc3nc2c1", "condition": "TAB109", "fitted potency (µM)": "15.85", "curve as filed": "inhibitor, single point"}
{"structure": "Nc1ccc2cc3ccc(N)cc3nc2c1", "condition": "AA1029", "fitted potency (µM)": "11.22", "curve as filed": "inhibitor, single point"}
{"structure": "Nc1ccc2cc3ccc(N)cc3nc2c1", "condition": "CP247", "fitted potency (µM)": "12.59", "curve as filed": "inhibitor, single point"}
{"structure": "Nc1ccc2cc3ccc(N)cc3nc2c1", "condition": "CP329", "fitted potency (µM)": "16.94", "curve as filed": "inhibitor, single point"}
{"structure": "CN1CCC(=C2c3ccccc3C=Cc3ccccc32)CC1", "condition": "DIV17", "fitted potency (µM)": "1.069", "curve as filed": "inhibitor, partial curve, poor fit"}
{"structure": "CN1CCC(=C2c3ccccc3C=Cc3ccccc32)CC1", "condition": "CP269", "fitted potency (µM)": "1.901", "curve as filed": "inhibitor, partial curve, poor fit"}
{"structure": "CN1CCC(=C2c3ccccc3C=Cc3ccccc32)CC1", "condition": "W2", "fitted potency (µM)": "1.694", "curve as filed": "inhibitor, partial curve"}
{"structure": "CN1CCC(=C2c3ccccc3C=Cc3ccccc32)CC1", "condition": "Dd2", "fitted potency (µM)": "2.239", "curve as filed": "inhibitor, single point"}
{"structure": "CN1CCC(=C2c3ccccc3C=Cc3ccccc32)CC1", "condition": "7G8", "fitted potency (µM)": "2.239", "curve as filed": "inhibitor, partial curve"}
{"structure": "CN1CCC(=C2c3ccccc3C=Cc3ccccc32)CC1", "condition": "DIV14", "fitted potency (µM)": "1.346", "curve as filed": "inhibitor, partial curve"}
{"structure": "CN1CCC(=C2c3ccccc3C=Cc3ccccc32)CC1", "condition": "GB4", "fitted potency (µM)": "3.013", "curve as filed": "inhibitor, partial curve"}

For reference, 4 entries once more:

{"structure": "Nc1ccc2cc3ccc(N)cc3nc2c1", "condition": "3D7", "fitted potency (µM)": "11.22", "curve as filed": "inhibitor, single point"}
{"structure": "Nc1ccc2cc3ccc(N)cc3nc2c1", "condition": "CP269", "fitted potency (µM)": "16.94", "curve as filed": "inhibitor, single point"}
{"structure": "CN1CCC(=C2c3ccccc3C=Cc3ccccc32)CC1", "condition": "CP269", "fitted potency (µM)": "1.901", "curve as filed": "inhibitor, partial curve, poor fit"}
{"structure": "CN1CCC(=C2c3ccccc3C=Cc3ccccc32)CC1", "condition": "GB4", "fitted potency (µM)": "3.013", "curve as filed": "inhibitor, partial curve"}

Source: PubChem BioAssay AID504749 (NCATS, 2011).